Assay in all cases: Y2H; output trait library
Experiment [1] deals with OsMADS6 aa 50-200 (Oryza sativa) (UniProt Q6EU39).
Experiment [2] addresses OsRAP1B aa 1-247 (Oryza sativa) (UniProt Q10CQ1).
The target in experiment [3] is T1, Os018989-4003 aa 90-220 (Oryza sativa).
T1 sequence: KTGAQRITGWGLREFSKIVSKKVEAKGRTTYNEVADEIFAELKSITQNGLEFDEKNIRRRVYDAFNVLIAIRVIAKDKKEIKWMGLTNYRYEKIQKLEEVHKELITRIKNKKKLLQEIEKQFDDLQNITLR

Amino acid sequences for entries named in this document (tags omitted). A change or cut given only in a name is not applied to a line headed by its entry.
UniProt Q6EU39: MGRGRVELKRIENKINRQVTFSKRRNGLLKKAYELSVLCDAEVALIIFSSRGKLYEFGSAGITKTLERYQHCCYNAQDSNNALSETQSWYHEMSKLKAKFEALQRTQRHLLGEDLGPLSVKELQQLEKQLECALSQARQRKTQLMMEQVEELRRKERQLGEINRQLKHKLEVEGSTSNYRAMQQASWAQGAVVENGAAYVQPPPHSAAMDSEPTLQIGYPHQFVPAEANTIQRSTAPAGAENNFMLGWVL
UniProt Q10CQ1: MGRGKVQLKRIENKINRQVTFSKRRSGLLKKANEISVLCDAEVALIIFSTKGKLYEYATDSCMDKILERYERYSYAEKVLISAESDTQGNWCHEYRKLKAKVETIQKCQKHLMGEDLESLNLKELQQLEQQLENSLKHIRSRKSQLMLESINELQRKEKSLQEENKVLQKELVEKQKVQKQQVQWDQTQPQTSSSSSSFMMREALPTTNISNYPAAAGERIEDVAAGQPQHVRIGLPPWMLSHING
UniProt Q6Z6W2: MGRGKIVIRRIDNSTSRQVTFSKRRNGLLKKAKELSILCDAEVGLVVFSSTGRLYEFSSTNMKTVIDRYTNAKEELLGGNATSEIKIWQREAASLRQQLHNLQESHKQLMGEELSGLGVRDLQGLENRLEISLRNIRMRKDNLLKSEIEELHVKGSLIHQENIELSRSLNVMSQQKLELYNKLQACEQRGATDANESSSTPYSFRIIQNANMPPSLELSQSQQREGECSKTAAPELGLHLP
UniProt P0C5B0: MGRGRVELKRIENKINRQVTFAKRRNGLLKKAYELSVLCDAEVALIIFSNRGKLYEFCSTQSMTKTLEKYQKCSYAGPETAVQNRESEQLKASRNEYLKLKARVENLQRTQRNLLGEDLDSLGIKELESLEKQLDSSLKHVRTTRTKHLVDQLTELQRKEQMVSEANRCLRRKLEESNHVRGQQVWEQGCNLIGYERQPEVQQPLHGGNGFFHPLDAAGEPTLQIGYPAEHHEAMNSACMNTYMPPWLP

No constants are given. Whether binding was seen depends on the method and setting. Some results given as binding are weak or reduced against the parent protein; the word gives no strength.

The values below come from patent US20060253917A1.

“OsPN29949 aa 109-193 (from UniProt Q6Z6W2 109-193)”: the binding result in experiment [1] is “binds”. As to “OsMADS7 aa 1-250 (from UniProt P0C5B0 1-240)”, in experiment [2], the binding result is recorded as “binds”. For the substance “OsMADS14 aa 54-180 (from UniProt Q10CQ1 54-180)”, in experiment [3], the binding entry is reported as “binds”. Consider “OsPN29949 aa 118-241 (from UniProt Q6Z6W2 118-241)”, for which, in experiment [1], the binding entry was “binds”.
